Measured values from patent US20230151083A1.
Changes are numbered by the printed parent chain. No constants are given. Whether binding was seen depends on the method and setting. For part of these data: Binding calls can cover weak binding; strength is not graded here.

B1: PT3 hIgG1 (antibody, V domains shown)
VH: EVKLVESGGDLVKPGGSLKLSCAASGFTFSSYAMSWVRQNPEKRLEWVASISKGGNTYYPNSVKGRFTISRDNARNILYLQMSSLRSEDTALYYCARGWGDYGWFAYWGQVTLVTVSA
VL: DIKMTQSPSSMYASLGERVTITCKASQDINRYLNWFQQKPGKSPKTLIYRANRLLDGVPSRFSGSGSGQDYSLTISSLDYEDMGIYYCLQYDEFPLTFGDGTKLELK
B2: PT1B847 (antibody, human IgG1, kappa, V domains shown)
VH: EVQLVESGGGLVKPGGSLRLSCAASGFTFSSYAMSWVRQAPGKRLEWVASISKGGNTYYPNSVKGRFTISRDNAKNSLYLQMNSLRAEDTAVYYCARGWGDYGWFAYWGQVTLVTVSS
VL: DIQMTQSPSSLSASVGDRVTITCKASQDINRYLNWFQQKPGKAPKTLIYRANRLLDGVPSRFSGSGSGTDFTLTISSLQPEDFATYYCQQYDEFPLTFGQGTKLEIKR
B3: PT1B856 (antibody, human IgG1, kappa, V domains shown)
VH: B2 VH with A40N, R44G, N61D
VL: B2 VL

What was measured:
[1] = biological target: tau from Cynomolgous monkey brain (Cynomolgous monkey); test: Western blot on brain homogenate
[2] = biological target: tau from dog brain (dog); test: Western blot on brain homogenate, antibody 1 µg/mL
[3] = biological target: tau from marmoset brain (marmoset); test: Western blot on brain homogenate, antibody 1 µg/mL
[4] = biological target: tau from minipig brain (minipig); test: Western blot on brain homogenate, antibody 1 µg/mL

Row | Binder | binding [1] | binding [2] | binding [3] | binding [4]
1 | B1 | no binding (tested: 1 µg/mL) | binds | binds | binds
2 | B2 | no binding (tested: 1 µg/mL) | binds | binds | binds
3 | B3 | no binding (tested: 1 µg/mL) | binds | binds | binds
